Results taken from PubChem BioAssay AID540275 (National Center for Advancing Translational Sciences (NCATS), 2011).
In all, about 320,000 compounds went through this assay and about 620 (0.19%) were called active. Inconclusive results, whose numbers are uncertain, are shown with a selection of clear calls. No stated cut-off is given here; in the data, active means activation above about 80%; inconclusive means between about 30% and that limit; inactive means weaker than that.

The chains behind the UniProt entries cited, without tags or fusion partners.
UniProt Q8NER1, whole entry, looked up: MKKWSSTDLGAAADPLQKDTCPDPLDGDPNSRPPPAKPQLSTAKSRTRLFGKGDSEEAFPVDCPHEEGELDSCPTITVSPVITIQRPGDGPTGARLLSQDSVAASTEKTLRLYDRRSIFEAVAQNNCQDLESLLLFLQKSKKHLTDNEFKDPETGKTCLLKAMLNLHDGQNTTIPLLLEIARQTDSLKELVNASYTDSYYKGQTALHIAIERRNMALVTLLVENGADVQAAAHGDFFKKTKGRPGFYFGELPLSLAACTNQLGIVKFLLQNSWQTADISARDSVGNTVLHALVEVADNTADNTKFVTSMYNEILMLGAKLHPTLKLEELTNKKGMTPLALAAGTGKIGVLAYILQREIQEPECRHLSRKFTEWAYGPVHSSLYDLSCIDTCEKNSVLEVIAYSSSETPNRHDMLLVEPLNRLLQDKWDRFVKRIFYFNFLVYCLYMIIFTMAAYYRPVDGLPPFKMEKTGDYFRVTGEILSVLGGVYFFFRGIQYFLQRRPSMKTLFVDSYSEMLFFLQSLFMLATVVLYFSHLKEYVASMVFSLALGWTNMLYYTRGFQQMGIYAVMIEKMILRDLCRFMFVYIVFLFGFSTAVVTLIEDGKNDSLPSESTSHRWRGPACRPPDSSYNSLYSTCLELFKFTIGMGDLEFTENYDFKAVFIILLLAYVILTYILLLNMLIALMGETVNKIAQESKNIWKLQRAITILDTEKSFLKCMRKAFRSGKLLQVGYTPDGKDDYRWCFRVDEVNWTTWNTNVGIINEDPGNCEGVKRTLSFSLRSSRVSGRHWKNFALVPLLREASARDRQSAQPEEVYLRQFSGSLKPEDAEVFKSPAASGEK

molecular target: Transient receptor potential cation channel subfamily V member 1 (Homo sapiens) (UniProt Q8NER1); experiment: HTS Assay for Compounds that Act as Agonists of the Vanilloid Receptor 1; conditions: TRPV1-expressing cells, Fluo-8 calcium influx, agonist mode; at 8.33 µM, active compounds read high; further: 0% is about no effect
Outline: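 TRPV1-expressing cells were cultured overnight at 35.5C and loaded with Fluo-8 calcium dye for 40 to 90 min at room temperature. After a 10 s baseline, compound was added and calcium influx was read kinetically for 3 min (ex 480/em 520 nm).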

Row | SMILES | activation
1 | CCC(CC)C(=O)Nc1c2c(nn1-c1ccc(OC)cc1)CS(=O)C2 (stereo not drawn) | inactive: 0.0624%
2 | COc1ccc(C2=Nn3c(nnc3C3CCCCC3)SC2)cc1OC | inconclusive: 34.3%
3 | CC(=O)/C(N=Nc1c(C)n(C)n(-c2ccccc2)c1=O)=C(\C)O | inactive: -1.27%
4 | COC(/C=C/Nc1ccc(Cl)cc1)=C(C#N)C#N | inactive: 1.9%
5 | COc1ccc(NC(=O)COc2ccc3c(c2)CCC3)cc1 | inconclusive: 47.8%
6 | CCOc1ccc(NC(=O)c2sccc2-n2cccc2)cc1 | inconclusive: 31.1%
7 | CC(OC(=O)/C(C#N)=C/c1ccc(N(C)C)cc1)C(=O)N(C)c1ccccc1 (stereo not drawn) | inconclusive: 39.3%
8 | Cc1ccc(S(=O)(=O)C2(C(=O)N3CCN(c4cc(C)ccc4C)CC3)CC2)cc1 | inconclusive: 39.7%
9 | COc1ccc(S(=O)(=O)/N=C2\C=C(Nc3ccc(O)cc3)C(=O)c3ccccc32)cc1 | inconclusive: 51.8%
10 | Cc1cc2nc(-c3ccc(SCc4ccccn4)nc3)[nH]c2cc1C | inconclusive: 49.1%
11 | Nc1ccc(C(=O)NNC(=O)C2COc3ccccc3O2)cc1[N+](=O)[O-] (stereo not drawn) | inconclusive: 33.9%
12 | Cc1ccc(NC(=O)c2[nH]cnc2C(=O)NN)cc1 | inconclusive: 37.4%
13 | NC(=O)Cc1ccc(Nc2nnc(-c3ccccc3)c3ccccc23)cc1 | inconclusive: 47.2%
14 | O=C(Nc1ccc2c(c1)OCO2)c1cc(C2CC2)on1 | inconclusive: 65.2%
15 | COC(=O)c1ccc(NC(=S)N2CCN(CCO)CC2)cc1 | inconclusive: 46.1%
16 | O=C(c1ccc2c(=O)n3c(nc2c1)CCCCC3)N1CCCCC1 | inactive: -1.76%
17 | COc1cc(NC(=S)NCc2ccco2)cc(OC)c1 | inconclusive: 36%
18 | Clc1ccc(-n2nnnc2SCc2cn3ccccc3n2)cc1 | inconclusive: 31.1%
19 | Fc1ccc(CNC(=S)Nc2ccc(Cl)cc2)cc1 | inconclusive: 52.8%
20 | O=C1C=C(c2cc(C(F)(F)F)cc(C(F)(F)F)c2)C[C@@H](c2ccc3c(c2)OCO3)C1 | inconclusive: 37.1%
21 | Cc1ccc2cc(/C=N/NC(=O)c3ccc(F)cc3)c(Cl)nc2c1 | inconclusive: 33.4%
22 | COc1ccc(/C(C)=N/NC(=O)c2ccccc2OCc2ccccc2)c(OC)c1 | inconclusive: 68.2%
23 | COc1ccccc1OCc1nnc(SCC(=O)NCc2ccco2)n1Cc1ccco1 | inactive: -0.348%
24 | Cc1ncsc1CCSc1nc2ccccc2c(=O)n1C | inconclusive: 59.5%

Row | SMILES | activation
25 | Cc1cc(C(=O)COC(=O)c2ccc3c(c2)NC(=O)CS3)c(C)n1CC1CCCO1 (stereo not drawn) | inconclusive: 41.4%
26 | Cc1ccc(NC(=S)NC(=O)c2ccc(Br)o2)c(C)c1 | inactive: 29.9%
27 | CCc1ccc(NC(=O)NCc2cccnc2)cc1 | inconclusive: 41.5%
28 | CC(Nc1cccc2ccccc12)C(=O)N/N=C/c1ccccn1 (stereo not drawn) | inconclusive: 48.4%
29 | CCOc1ccc(OCC)c(NC(=O)CCS(=O)(=O)c2ccc(C)cc2)c1 | inconclusive: 44.5%
30 | COCCNc1oc(Cc2cccc3ccccc23)nc1C#N | inconclusive: 57.1%
31 | Cc1cc(=O)[nH]c(-c2ccc(Cl)cc2)n1 | inconclusive: 36.5%
32 | COc1ccc(NC(=O)CCCN2C(=O)C(c3ccccc3)Oc3cccnc32)cc1 (stereo not drawn) | inconclusive: 43.5%
33 | Cc1ccc(-c2nc(C=Nc3ccccc3)c(O)o2)cc1 | inconclusive: 42.9%
34 | O=C(NCCSc1c[nH]c2ccccc12)C1CC1 | inconclusive: 37.2%
35 | O=C(Nc1ccc(N2CCOCC2)c(Cl)c1)c1cccc(F)c1 | inconclusive: 73.8%
36 | CC1=C/C(=C\C=C(C#N)C#N)N(C)c2ccccc21 | inactive: 12.2%
37 | Cc1ccc(C=Nc2ccccc2C(N)=O)cc1 | inactive: 0.942%
38 | Cc1nc2cc(C(F)(F)F)ccc2n1CCNc1nc(-c2ccc(F)cc2)cs1 | inconclusive: 35.7%
39 | O=C(CCc1ccccc1)Nc1ccc2c(c1)OCO2 | inconclusive: 35.7%
40 | Cc1cc(Cl)ccc1OCCCC(=O)Nc1cccc(-n2cnnn2)c1 | inconclusive: 46.4%
41 | COc1ccc2c(=O)c3c(=O)n(CCc4ccccc4)c(C(C)C)nc3oc2c1 | inconclusive: 31.1%
42 | CC(=O)c1c(C)[nH]c(C(=O)COC(=O)CCSc2ccccc2)c1C | inconclusive: 45.5%
43 | Cc1ccc(N(C)C(=O)c2cnn(-c3ccccc3)c2C)c(C)c1 | inactive: 16.9%
44 | O=C(COC(=O)c1ncc(Cl)c(Cl)c1Cl)c1ccc(Cl)s1 | inconclusive: 55.6%
45 | COC(=O)[C@@]1(Cc2ccc(F)cc2)[C@H]2c3cc(C(=O)N4CCCC4)n(CCc4ccccn4)c3C[C@H]2CN1C(=O)c1ccccc1 | inconclusive: 35.5%
46 | COc1ccc(NC(=O)NCCCCc2ccccc2)cc1OC | inconclusive: 76.4%
47 | CC(C)CC(=O)NC(=S)N1CCCCCC1 | inactive: -1.83%
48 | O=C(NC1CCN(Cc2ccc3ccccc3c2)CC1)c1ccccc1 | inactive: 3.61%

A few values from the list.
activation, CCc1ccc(NC(=O)NCc2cccnc2)cc1 is entered as inconclusive: 41.5%
activation, CC1=C/C(=C\C=C(C#N)C#N)N(C)c2ccccc21 is entered as inactive: 12.2%
activation, Cc1ccc(-c2nc(C=Nc3ccccc3)c(O)o2)cc1 is entered as inconclusive: 42.9%
activation, COc1ccc2c(=O)c3c(=O)n(CCc4ccccc4)c(C(C)C)nc3oc2c1 is entered as inconclusive: 31.1%

(continued)

Row | SMILES | activation
49 | Cc1nnc2n(C3CCCCC3)c(=O)c3c4c(sc3n12)COC(C)(C)C4 | inconclusive: 30.2%
50 | Cc1cccc(-c2nc(C#N)c(NCC3CCCO3)o2)c1 (stereo not drawn) | inconclusive: 51.8%
51 | CCc1nn2c(=O)cc(CSCC(=O)Nc3ccccc3F)nc2s1 | inactive: -1.91%
52 | COC(=O)C(NC(C)=O)(Nc1nc2c(C)cc(C)cc2s1)C(F)(F)F (stereo not drawn) | inactive: -2.59%
53 | Cc1c(C(=O)Nc2ccccc2)csc1-c1ccccc1 | inconclusive: 72.7%
54 | CCC(Oc1ccccc1)C(=O)Nc1ccc(C)c(S(=O)(=O)N2CCOCC2)c1 (stereo not drawn) | inconclusive: 36.9%
55 | CCOC(=O)c1nn(-c2ccc(F)cc2)cc1O | inactive: -1.48%
56 | CCN1C(=O)S/C(=C/c2c(OCc3ccc(C(=O)O)cc3)ccc3ccccc23)C1=O | inactive: 23.1%
57 | Cc1cccc(-n2ncc3c2CCCC3NC(=O)C2(C(N)=O)CC2)c1C (stereo not drawn) | inconclusive: 37.3%
58 | COc1ccc(CN(CCc2ccccc2)Cc2ccccc2)cc1OC | inactive: 5.19%
59 | COc1ccc(C(=O)NCCn2cc(SCC(=O)NCc3ccco3)c3ccccc32)cc1 | inactive: 4.99%
60 | Cc1nn(C)c(C(=O)NNC(=S)NCc2ccccc2)c1Cl | inactive: -2.06%
61 | COc1ccc2ccc(=O)oc2c1CC=C(C)C | inconclusive: 37.1%
62 | Cc1n[nH]c(=S)n1/N=C/c1ccc(-c2ccccc2[N+](=O)[O-])o1 | inconclusive: 32.6%
63 | CCN(CC)c1ccc2c(C)cc(=O)oc2c1 | inconclusive: 43.1%
64 | O=C(Nc1ccc(F)c(F)c1)c1ccc(F)c(S(=O)(=O)N2CCOCC2)c1 | inconclusive: 55.3%
65 | CC(=O)N1CCN(c2nnc(-c3ccccc3)c3ccccc23)CC1 | inconclusive: 37.8%
66 | CCN(CC)C(=O)c1cccc(NC(=O)c2ccc3c(=O)n4c(nc3c2)CCC4)c1 | inactive: -2.02%
67 | CCc1ccc(Nc2ncc3c(n2)CC(C)(C)CC3=O)cc1 | inconclusive: 43.2%
68 | CC(C)CCNC(=S)Nc1ccc([N+](=O)[O-])cc1 | inconclusive: 49.7%
69 | N#Cc1nc(-c2ccccc2Cl)oc1N1CCOCC1 | inconclusive: 38.5%
70 | O=C(CCCc1ccccc1)c1ccc2c(c1)OCCO2 | inactive: 15.8%
71 | C[C@@H]1CCC(=O)N(CC[C@H](Sc2ccc(Br)cc2)c2ccccc2)CC1 | inconclusive: 77.1%
72 | Cc1cc2c(NC(=O)Nc3ccc(C(F)(F)F)cc3)cccc2nn1 | active: 81.9%

Three entries from above, sorted by number of heavy atoms, high to low:
Row | SMILES | activation
72 | Cc1cc2c(NC(=O)Nc3ccc(C(F)(F)F)cc3)cccc2nn1 | active: 81.9%
68 | CC(C)CCNC(=S)Nc1ccc([N+](=O)[O-])cc1 | inconclusive: 49.7%
63 | CCN(CC)c1ccc2c(C)cc(=O)oc2c1 | inconclusive: 43.1%

(list continues)

Row | SMILES | activation
73 | Cc1cc(C)cc(N(CC(=O)N2CCC(C)CC2)S(=O)(=O)c2ccccc2)c1 | inconclusive: 49.3%
74 | CC(C)c1ccc(NC(=O)c2ccc(Br)o2)cc1 | inconclusive: 73.5%
75 | CC(C)(C)C1=NN(C(=O)c2ccccc2)C(O)(C(C)(C)C)C1 (stereo not drawn) | inactive: 5.52%
76 | CCOC(=O)CCP(=O)(O)C(O)c1ccc(OC)cc1 (stereo not drawn) | inactive: -0.786%
77 | CCOC(=O)C1(CCc2ccccc2)CCN(C(=O)CCc2cnccn2)CC1 | inconclusive: 33%
78 | O=S(=O)(N1CCCCC1)N1CCN(c2cc(Cl)ccc2Cl)CC1 | inconclusive: 52.1%
79 | CC(C)CC(=O)Nc1cccc(-c2nc3ccccc3o2)c1 | inconclusive: 36.9%
80 | O=C(ON=C1CCN(S(=O)(=O)c2ccccc2)CC1)c1ccccc1 | inconclusive: 41.4%
81 | COc1ccc(C)cc1NC(=O)c1nn(-c2ccccc2)cc1OC | inconclusive: 56.3%
82 | CC(C)c1nnc(NC(=O)c2nc(S(=O)(=O)Cc3ccccc3F)ncc2Cl)s1 | inactive: 0.0501%
83 | COCC(=O)Nc1nc(-c2ccccc2)c(C)s1 | inactive: 4.9%
84 | Fc1cccc(NC(=S)N2CCN(c3ccccn3)CC2)c1 | inactive: 16.5%
85 | COc1ccc(NC(=O)c2ccccc2)cc1NS(=O)(=O)c1ccc(F)cc1 | inactive: 4.75%
86 | COc1ccc(CNC(=O)CN(C)Cc2ccc(C(C)(C)C)cc2)cc1 | inconclusive: 50.5%
87 | COc1ccc(-c2noc(N3CCC(C(=O)Nc4ccccc4Cl)CC3)n2)cc1 | inactive: 12.6%
88 | c1ccc2nc(-c3ccc(N4CCOCC4)cc3)ccc2c1 | inactive: -12.7%
89 | CC(=O)Nc1nonc1-c1nc2ccccc2n1CCC(C)C | inconclusive: 44.5%
90 | O=C(Nc1cccc(Cl)c1)c1ccc(Cn2cc(Cl)cn2)cc1 | inconclusive: 38.3%
91 | Cc1ccsc1/C=N/NC(=O)c1nnn(-c2nonc2N)c1CSc1ccccc1 | inactive: 18.7%
92 | CC(Oc1ccc(Cl)cc1)c1ccnn1S(=O)(=O)c1ccccc1 (stereo not drawn) | inconclusive: 32.7%
93 | NC(=O)c1nnn(-c2ccc([N+](=O)[O-])cc2)c1-c1ccccc1 | inconclusive: 39.3%
